From patent US20020086331A1 come the findings set out here.

Results are given in words; binding and its absence hold for the method and conditions named. Some entries that bind do so weakly or less than the wild type.

The target in this experiment is Fhit domain of C. elegans NitFhit (C. elegans) (UniProt O76463). Nature of the experiment: crystal structure of NitFhit, 2.8 Å.

B1: Fhit domain of C. elegans NitFhit (enzyme, UniProt O76463 297-440, looked up)
chain: GGLKFARFNIPADHIFYSTPHSFVFVNLKPVTDGHVLVSPKRVVPRLTDLTDAETADLFIVAKKVQAMLEKHHNVTSTTICVQDGKDAGQTVPHVHIHILPRRAGDFGDNEIYQKLASHDKEPERKPRSNEQMAEEAVVYRNLM
Consider B1, for which the binding entry was “binds”.
